In publication PMC4335217:
No constants are given. Whether binding was seen depends on the method and setting. Binding seen in cells or lysates may run through a third protein. A yes stands for co-enrichment or nearness to the bait. Other partners may have been found. For part of these data: Sequences can lack the tags named with a protein.

Protein sequences, listed by entry. Tags and fused reporters are not part of them.
UniProt Q4JK59: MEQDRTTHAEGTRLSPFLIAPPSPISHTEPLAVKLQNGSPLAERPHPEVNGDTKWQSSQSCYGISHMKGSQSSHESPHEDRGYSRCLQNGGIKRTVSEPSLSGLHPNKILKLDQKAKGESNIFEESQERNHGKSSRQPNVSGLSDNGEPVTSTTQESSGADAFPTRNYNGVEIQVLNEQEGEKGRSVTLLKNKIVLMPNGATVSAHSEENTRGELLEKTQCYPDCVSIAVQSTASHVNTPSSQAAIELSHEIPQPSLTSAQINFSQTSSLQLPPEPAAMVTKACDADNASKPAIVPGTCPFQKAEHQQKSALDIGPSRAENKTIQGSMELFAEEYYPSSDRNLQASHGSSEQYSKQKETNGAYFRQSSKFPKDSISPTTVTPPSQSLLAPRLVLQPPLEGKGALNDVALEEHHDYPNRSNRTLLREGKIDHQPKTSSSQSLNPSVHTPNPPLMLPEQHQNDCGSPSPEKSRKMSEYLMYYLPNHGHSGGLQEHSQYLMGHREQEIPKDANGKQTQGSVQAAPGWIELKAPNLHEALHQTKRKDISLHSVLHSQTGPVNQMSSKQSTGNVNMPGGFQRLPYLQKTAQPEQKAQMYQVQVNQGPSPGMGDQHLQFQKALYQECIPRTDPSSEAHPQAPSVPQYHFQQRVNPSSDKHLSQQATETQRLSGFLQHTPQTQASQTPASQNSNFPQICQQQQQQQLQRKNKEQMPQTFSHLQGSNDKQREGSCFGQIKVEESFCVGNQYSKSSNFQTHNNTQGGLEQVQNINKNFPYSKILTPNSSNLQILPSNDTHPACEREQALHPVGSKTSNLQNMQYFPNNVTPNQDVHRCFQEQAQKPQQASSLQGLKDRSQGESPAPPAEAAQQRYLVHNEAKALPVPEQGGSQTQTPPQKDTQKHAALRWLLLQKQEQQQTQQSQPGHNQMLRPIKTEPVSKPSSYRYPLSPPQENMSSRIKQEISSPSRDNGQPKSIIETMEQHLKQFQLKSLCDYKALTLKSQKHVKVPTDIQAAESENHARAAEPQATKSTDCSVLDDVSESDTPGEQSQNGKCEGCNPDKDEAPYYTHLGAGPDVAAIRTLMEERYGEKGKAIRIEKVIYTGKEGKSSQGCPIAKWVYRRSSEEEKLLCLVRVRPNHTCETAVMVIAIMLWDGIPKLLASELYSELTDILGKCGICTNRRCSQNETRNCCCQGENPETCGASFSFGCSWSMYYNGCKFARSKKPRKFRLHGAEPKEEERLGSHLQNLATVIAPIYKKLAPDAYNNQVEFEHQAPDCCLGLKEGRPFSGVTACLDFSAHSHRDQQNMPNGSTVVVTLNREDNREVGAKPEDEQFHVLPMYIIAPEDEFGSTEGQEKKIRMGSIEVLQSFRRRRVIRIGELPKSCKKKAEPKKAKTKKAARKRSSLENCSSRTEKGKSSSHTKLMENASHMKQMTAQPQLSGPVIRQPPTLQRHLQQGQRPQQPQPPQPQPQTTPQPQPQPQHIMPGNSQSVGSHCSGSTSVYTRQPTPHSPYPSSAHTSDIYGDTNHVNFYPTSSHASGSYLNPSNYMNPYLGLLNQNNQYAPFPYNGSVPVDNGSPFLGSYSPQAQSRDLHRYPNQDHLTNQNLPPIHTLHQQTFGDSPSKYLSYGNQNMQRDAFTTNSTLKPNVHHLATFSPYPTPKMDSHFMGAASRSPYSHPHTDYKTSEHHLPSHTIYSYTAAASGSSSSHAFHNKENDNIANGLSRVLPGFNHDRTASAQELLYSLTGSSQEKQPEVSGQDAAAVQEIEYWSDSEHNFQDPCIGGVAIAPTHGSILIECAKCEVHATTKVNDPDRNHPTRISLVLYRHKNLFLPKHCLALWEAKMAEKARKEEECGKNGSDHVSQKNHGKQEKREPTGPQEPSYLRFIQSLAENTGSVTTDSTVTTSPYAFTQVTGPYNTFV
UniProt Q3URK3: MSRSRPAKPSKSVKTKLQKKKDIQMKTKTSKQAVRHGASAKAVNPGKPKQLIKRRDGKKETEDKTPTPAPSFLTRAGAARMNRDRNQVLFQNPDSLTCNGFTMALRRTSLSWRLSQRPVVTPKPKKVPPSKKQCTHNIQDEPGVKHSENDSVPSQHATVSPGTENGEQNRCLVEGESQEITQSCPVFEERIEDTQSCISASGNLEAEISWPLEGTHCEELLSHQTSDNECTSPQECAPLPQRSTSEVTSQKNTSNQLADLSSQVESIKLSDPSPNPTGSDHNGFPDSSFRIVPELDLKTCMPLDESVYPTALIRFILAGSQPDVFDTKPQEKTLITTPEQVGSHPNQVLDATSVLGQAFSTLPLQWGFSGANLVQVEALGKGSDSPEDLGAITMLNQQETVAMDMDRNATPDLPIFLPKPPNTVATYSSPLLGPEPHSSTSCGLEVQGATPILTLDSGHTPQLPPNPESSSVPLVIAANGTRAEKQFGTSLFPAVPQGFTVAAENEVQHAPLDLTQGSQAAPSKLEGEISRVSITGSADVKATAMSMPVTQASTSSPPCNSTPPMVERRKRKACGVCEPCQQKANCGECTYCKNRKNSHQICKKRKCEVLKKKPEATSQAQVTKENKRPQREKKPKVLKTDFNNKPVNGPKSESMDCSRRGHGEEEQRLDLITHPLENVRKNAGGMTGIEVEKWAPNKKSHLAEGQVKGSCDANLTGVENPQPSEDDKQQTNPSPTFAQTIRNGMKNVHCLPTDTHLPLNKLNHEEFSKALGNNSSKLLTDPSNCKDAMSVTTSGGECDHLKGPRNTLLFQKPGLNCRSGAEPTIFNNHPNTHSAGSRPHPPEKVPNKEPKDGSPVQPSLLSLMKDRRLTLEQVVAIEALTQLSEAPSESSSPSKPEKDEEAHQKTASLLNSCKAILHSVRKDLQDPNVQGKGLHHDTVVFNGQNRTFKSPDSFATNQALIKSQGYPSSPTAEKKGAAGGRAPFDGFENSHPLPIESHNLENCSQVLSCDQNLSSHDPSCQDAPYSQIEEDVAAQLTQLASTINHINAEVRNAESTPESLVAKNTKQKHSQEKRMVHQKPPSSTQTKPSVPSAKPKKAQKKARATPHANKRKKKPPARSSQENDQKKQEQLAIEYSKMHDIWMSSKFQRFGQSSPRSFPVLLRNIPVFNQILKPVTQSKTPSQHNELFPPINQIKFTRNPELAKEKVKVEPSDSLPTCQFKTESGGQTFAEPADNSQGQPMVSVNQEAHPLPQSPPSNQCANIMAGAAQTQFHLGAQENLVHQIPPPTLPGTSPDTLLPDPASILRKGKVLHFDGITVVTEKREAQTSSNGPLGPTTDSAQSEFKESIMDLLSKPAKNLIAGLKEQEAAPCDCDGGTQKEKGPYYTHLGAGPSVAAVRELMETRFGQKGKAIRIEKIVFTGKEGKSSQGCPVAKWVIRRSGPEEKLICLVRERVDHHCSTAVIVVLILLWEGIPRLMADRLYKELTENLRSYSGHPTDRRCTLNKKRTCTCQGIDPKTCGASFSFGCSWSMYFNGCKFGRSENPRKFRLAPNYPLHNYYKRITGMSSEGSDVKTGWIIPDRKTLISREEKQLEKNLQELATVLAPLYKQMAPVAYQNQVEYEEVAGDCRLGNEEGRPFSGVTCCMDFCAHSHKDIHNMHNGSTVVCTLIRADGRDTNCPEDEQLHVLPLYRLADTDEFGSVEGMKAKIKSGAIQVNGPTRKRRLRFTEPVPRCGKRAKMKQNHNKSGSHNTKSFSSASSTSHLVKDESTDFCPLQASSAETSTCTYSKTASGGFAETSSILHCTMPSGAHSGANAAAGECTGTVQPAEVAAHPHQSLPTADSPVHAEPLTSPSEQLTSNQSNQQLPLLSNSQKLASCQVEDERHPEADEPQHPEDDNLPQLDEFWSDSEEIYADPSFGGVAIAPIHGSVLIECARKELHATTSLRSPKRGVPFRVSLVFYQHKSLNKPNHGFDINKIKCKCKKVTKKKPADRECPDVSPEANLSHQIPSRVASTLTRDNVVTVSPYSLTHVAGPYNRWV

Legend:
[1] = biological target: TET2 (endogenous, mouse embryonic stem cells) (mouse (endogenous in J1 mESCs)) (UniProt Q4JK59); assay: affinity purification with mass spectrometry; endogenous TET1 or TET2 precipitated from J1 mESCs with monoclonal antibodies (clones 5D6, 5D8, 9F7) coupled to protein G-Sepharose; on-bead trypsin digest; LC-MS/MS; protein G beads without antibody as negative control
[2] = biological target: TET1 (endogenous, mouse embryonic stem cells) (mouse (endogenous in J1 mESCs)) (UniProt Q3URK3); assay: as above
[3] = biological target: GFP-TET2 (murine) (UniProt Q4JK59); assay: affinity purification with mass spectrometry; immunoprecipitation of GFP-tagged TET1, TET2 or TET3 expressed in HEK293T cells, followed by LC-MS/MS; pulldown of GFP as negative control

binding [1] | binding [2] | binding [3] | Binder
binds | binds |  | O-linked GlcNAc transferase OGT (endogenous, mouse embryonic stem cells) (enzyme, UniProt Q8CGY8 1-1046) MASSVGNVADSTEPTKRMLSFQGLAELAHREYQAGDFEAAERHCMQLWRQEPDNTGVLLLLSSIHFQCRRLDRSAHFSTLAIKQNPLLAEAYSNLGNVYKERGQLQEAIEHYRHALRLKPDFIDGYINLAAALVAAGDMEGAVQAYVSALQYNPDLYCVRSDLGNLLKALGRLEEAKACYLKAIETQPNFAVAWSNLGCVFNAQGEIWLAIHHFEKAVTLDPNFLDAYINLGNVLKEARIFDRAVAAYLRALSLSPNHAVVHGNLACVYYEQGLIDLAIDTYRRAIELQPHFPDAYCNLANALKEKGSVAEAEDCYNTALRLCPTHADSLNNLANIKREQGNIEEAVRLYRKALEVFPEFAAAHSNLASVLQQQGKLQEALMHYKEAIRISPTFADAYSNMGNTLKEMQDVQGALQCYTRAIQINPAFADAHSNLASIHKDSGNIPEAIASYRTALKLKPDFPDAYCNLAHCLQIVCDWTDYDERMKKLVSIVAEQLEKNRLPSVHPHHSMLYPLSHGFRKAIAERHGNLCLDKINVLHKPPYEHPKDLKLSDGRLRVGYVSSDFGNHPTSHLMQSIPGMHNPDKFEVFCYALSPDDGTNFRVKVMAEANHFIDLSQIPCNGKAADRIHQDGIHILVNMNGYTKGARNELFALRPAPIQAMWLGYPGTSGALFMDYIITDQETSPAEVAEQYSEKLAYMPHTFFIGDHANMFPHLKKKAVIDFKSNGHIYDNRIVLNGIDLKAFLDSLPDVKIVKMKCPDGGDNPDSSNTALNMPVIPMNTIAEAVIEMINRGQIQITINGFSISNGLATTQINNKAATGEEVPRTIIVTTRSQYGLPEDAIVYCNFNQLYKIDPSTLQMWANILKRVPNSVLWLLRFPAVGEPNIQQYAQNMGLPQNRIIFSPVAPKEEHVRRGQLADVCLDTPLCNGHTTGMDVLWAGTPMVTMPGETLASRVAASQLTCLGCLELIAKSRQEYEDIAVKLGTDLEYLKKIRGKVWKQRISSPLFNTKQYTMELERLYLQMWEHYAAGNKPDHMIKPVEVTESA
 |  | binds | OGT found in GFP-TET pulldowns from HEK293T cells (enzyme, UniProt O15294 1-1046) MASSVGNVADSTEPTKRMLSFQGLAELAHREYQAGDFEAAERHCMQLWRQEPDNTGVLLLLSSIHFQCRRLDRSAHFSTLAIKQNPLLAEAYSNLGNVYKERGQLQEAIEHYRHALRLKPDFIDGYINLAAALVAAGDMEGAVQAYVSALQYNPDLYCVRSDLGNLLKALGRLEEAKACYLKAIETQPNFAVAWSNLGCVFNAQGEIWLAIHHFEKAVTLDPNFLDAYINLGNVLKEARIFDRAVAAYLRALSLSPNHAVVHGNLACVYYEQGLIDLAIDTYRRAIELQPHFPDAYCNLANALKEKGSVAEAEDCYNTALRLCPTHADSLNNLANIKREQGNIEEAVRLYRKALEVFPEFAAAHSNLASVLQQQGKLQEALMHYKEAIRISPTFADAYSNMGNTLKEMQDVQGALQCYTRAIQINPAFADAHSNLASIHKDSGNIPEAIASYRTALKLKPDFPDAYCNLAHCLQIVCDWTDYDERMKKLVSIVADQLEKNRLPSVHPHHSMLYPLSHGFRKAIAERHGNLCLDKINVLHKPPYEHPKDLKLSDGRLRVGYVSSDFGNHPTSHLMQSIPGMHNPDKFEVFCYALSPDDGTNFRVKVMAEANHFIDLSQIPCNGKAADRIHQDGIHILVNMNGYTKGARNELFALRPAPIQAMWLGYPGTSGALFMDYIITDQETSPAEVAEQYSEKLAYMPHTFFIGDHANMFPHLKKKAVIDFKSNGHIYDNRIVLNGIDLKAFLDSLPDVKIVKMKCPDGGDNADSSNTALNMPVIPMNTIAEAVIEMINRGQIQITINGFSISNGLATTQINNKAATGEEVPRTIIVTTRSQYGLPEDAIVYCNFNQLYKIDPSTLQMWANILKRVPNSVLWLLRFPAVGEPNIQQYAQNMGLPQNRIIFSPVAPKEEHVRRGQLADVCLDTPLCNGHTTGMDVLWAGTPMVTMPGETLASRVAASQLTCLGCLELIAKNRQEYEDIAVKLGTDLEYLKKVRGKVWKQRISSPLFNTKQYTMELERLYLQMWEHYAAGNKPDHMIKPVEVTESA
